Results: patent US6353024B1, “Method for preventing and treating arthritis, osteo-traumatic pain, and neuralgias with trimebutine” (Warner-Lambert Company, priority 2000, dated 2002)

System: sodium current of DRG neurons
Assay: whole cell patch clamp, sodium currents in DRG neurons
Format: cell-based, rat
Settings: maleate

For CCC(COC(=O)c1cc(OC)c(OC)c(OC)c1)(c1ccccc1)N(C)C.O=C(O)/C=C\C(=O)O (racemic) [trimebutine, 2-dimethylamino-2-phenylbutyl 3,4,5-trimethoxybenzoate hydrogen maleate], the “nH (Hill coefficient), Na+ current block” value was 1.02 and 1.09±0.10.

“And” between values parts separate entries of the source, which are not always exact repeats. Equal values may be shown once.
